Reference: article PMC11005723, “Development of Complementary Photo‐arginine/lysine to Promote Discovery of Arg/Lys hPTMs Interactomes” (Advanced Science, 2024)
Further values from the same series stand in other lists.

System: HEK293T nuclear lysates
Assay: SILAC‐based pull‐down proteomics H4K5acK8ac/H4K5 (probes 8/5)
Assay type: binding, human

## probe 8: H4K5acK8ac peptide probe with photo‐arginine R(dz) and K(biotin) (SGRGKGGKGLGKGGK; photo-arginine R(dz) at 3; acetyl-lysine at 5; acetyl-lysine at 8; K(biotin) at 15)
Protein SMCHD1 (A6NHR9), replicate B6
  B6 log2 (H4K5ac8ac/H4K5): 0.1692
Protein SMU1 (Q2TAY7), replicate A6
  A6 log2 (H4K5ac8ac/H4K5): 1.408
Protein SMU1 (Q2TAY7), replicate B6
  B6 log2 (H4K5ac8ac/H4K5): 0.1323
Protein SND1 (Q7KZF4), replicate A6
  A6 log2 (H4K5ac8ac/H4K5): 0.02377
Protein SND1 (Q7KZF4), replicate B6
  B6 log2 (H4K5ac8ac/H4K5): 0.2076
Protein SUPT20H (B4E2D5), replicate A6
  A6 log2 (H4K5ac8ac/H4K5): -0.008701
Protein SUPT20H (B4E2D5), replicate B6
  B6 log2 (H4K5ac8ac/H4K5): 0.09447
Protein TARS (P26639), replicate A6
  A6 log2 (H4K5ac8ac/H4K5): 0.2216
Protein TARS (P26639), replicate B6
  B6 log2 (H4K5ac8ac/H4K5): 0.1022
Protein TBCC (Q15814), replicate A6
  A6 log2 (H4K5ac8ac/H4K5): 0.6727
Protein TBCC (Q15814), replicate B6
  B6 log2 (H4K5ac8ac/H4K5): 0.2088
Protein THOC3 (Q96J01), replicate A6
  A6 log2 (H4K5ac8ac/H4K5): 0.1071
Protein THOC3 (Q96J01), replicate B6
  B6 log2 (H4K5ac8ac/H4K5): 0.1618
Protein TPI1 (P60174), replicate A6
  A6 log2 (H4K5ac8ac/H4K5): 0.03474
Protein TPI1 (P60174), replicate B6
  B6 log2 (H4K5ac8ac/H4K5): 0.1724
Protein TPX2 (Q9ULW0), replicate A6
  A6 log2 (H4K5ac8ac/H4K5): 0.3363
Protein TPX2 (Q9ULW0), replicate B6
  B6 log2 (H4K5ac8ac/H4K5): 0.08976
Protein TUBB6 (Q9BUF5), replicate A6
  A6 log2 (H4K5ac8ac/H4K5): 0.1994
Protein TUBB6 (Q9BUF5), replicate B6
  B6 log2 (H4K5ac8ac/H4K5): 0.1733
Protein USP48 (Q86UV5), replicate A6
  A6 log2 (H4K5ac8ac/H4K5): 0.0658
Protein USP48 (Q86UV5), replicate B6
  B6 log2 (H4K5ac8ac/H4K5): 0.1885
Protein VDAC2 (A0A0A0MR02), replicate A6
  A6 log2 (H4K5ac8ac/H4K5): 0.4577
Protein VDAC2 (A0A0A0MR02), replicate B6
  B6 log2 (H4K5ac8ac/H4K5): 0.1677
Protein VRK1 (Q99986), replicate A6
  A6 log2 (H4K5ac8ac/H4K5): 0.04481
Protein VRK1 (Q99986), replicate B6
  B6 log2 (H4K5ac8ac/H4K5): 0.1662
Protein WDHD1 (O75717), replicate A6
  A6 log2 (H4K5ac8ac/H4K5): -0.09064
Protein WDHD1 (O75717), replicate B6
  B6 log2 (H4K5ac8ac/H4K5): 0.1039
Protein WDR82 (Q6UXN9), replicate A6
  A6 log2 (H4K5ac8ac/H4K5): 0.134
Protein WDR82 (Q6UXN9), replicate B6
  B6 log2 (H4K5ac8ac/H4K5): 0.109
Protein YWHAE (P62258), replicate A6
  A6 log2 (H4K5ac8ac/H4K5): 0.3463
Protein YWHAE (P62258), replicate B6
  B6 log2 (H4K5ac8ac/H4K5): 0.1476
Protein YY1 (H0YJU4), replicate A6
  A6 log2 (H4K5ac8ac/H4K5): 0.1095
Protein YY1 (H0YJU4), replicate B6
  B6 log2 (H4K5ac8ac/H4K5): 0.1453
Protein ZC3HC1 (C9J0I9), replicate A6
  A6 log2 (H4K5ac8ac/H4K5): 0.06542
Protein ZC3HC1 (C9J0I9), replicate B6
  B6 log2 (H4K5ac8ac/H4K5): 0.1123
Protein ZFP64 (Q9NTW7), replicate A6
  A6 log2 (H4K5ac8ac/H4K5): 0.1142
Protein ZFP64 (Q9NTW7), replicate B6
  B6 log2 (H4K5ac8ac/H4K5): 0.1892
Protein ZFR (Q96KR1), replicate A6
  A6 log2 (H4K5ac8ac/H4K5): 0.2728
Protein ZFR (Q96KR1), replicate B6
  B6 log2 (H4K5ac8ac/H4K5): 0.106
Protein ZMYM2 (Q9UBW7), replicate A6
  A6 log2 (H4K5ac8ac/H4K5): 0.1483
Protein ZMYM2 (Q9UBW7), replicate B6
  B6 log2 (H4K5ac8ac/H4K5): 0.09036
Protein ZNF24 (P17028), replicate A6
  A6 log2 (H4K5ac8ac/H4K5): 0.7178
Protein ZNF24 (P17028), replicate B6
  B6 log2 (H4K5ac8ac/H4K5): 0.2116
Protein ZNF207 (O43670), replicate A6
  A6 log2 (H4K5ac8ac/H4K5): 0.4331
Protein ZNF207 (O43670), replicate B6
  B6 log2 (H4K5ac8ac/H4K5): 0.2028
Protein ZNF217 (O75362), replicate A6
  A6 log2 (H4K5ac8ac/H4K5): -0.8752
Protein ZNF217 (O75362), replicate B6
  B6 log2 (H4K5ac8ac/H4K5): 0.08255
pulled-down protein ABCE1 (D6R9I9), run A6
  A6 log2 (H4K5ac8ac/H4K5): 0.4743
pulled-down protein ABCE1 (D6R9I9), run B6
  B6 log2 (H4K5ac8ac/H4K5): 0.5676
pulled-down protein ACLY (P53396), run A6
  A6 log2 (H4K5ac8ac/H4K5): 0.6948
pulled-down protein ACLY (P53396), run B6
  B6 log2 (H4K5ac8ac/H4K5): 1.132
pulled-down protein AIP (O00170), run A6
  A6 log2 (H4K5ac8ac/H4K5): 0.4076
pulled-down protein AIP (O00170), run B6
  B6 log2 (H4K5ac8ac/H4K5): 0.6403
pulled-down protein AMOT (Q4VCS5), run A6
  A6 log2 (H4K5ac8ac/H4K5): 0.2551
pulled-down protein AMOT (Q4VCS5), run B6
  B6 log2 (H4K5ac8ac/H4K5): 1.0062
pulled-down protein ANXA2 (P07355), run A6
  A6 log2 (H4K5ac8ac/H4K5): 1.076
pulled-down protein ANXA2 (P07355), run B6
  B6 log2 (H4K5ac8ac/H4K5): 1.091
pulled-down protein BRAP (J3KNN7), run A6
  A6 log2 (H4K5ac8ac/H4K5): 0.1925
pulled-down protein BRAP (J3KNN7), run B6
  B6 log2 (H4K5ac8ac/H4K5): 0.847
pulled-down protein BRD9 (Q9H8M2), run A6
  A6 log2 (H4K5ac8ac/H4K5): 1.116
pulled-down protein BRD9 (Q9H8M2), run B6
  B6 log2 (H4K5ac8ac/H4K5): 1.731
pulled-down protein CALD1 (C9J813), run A6
  A6 log2 (H4K5ac8ac/H4K5): 1.3
pulled-down protein CALD1 (C9J813), run B6
  B6 log2 (H4K5ac8ac/H4K5): 1.108
pulled-down protein CCDC50 (Q8IVM0), run A6
  A6 log2 (H4K5ac8ac/H4K5): 0.7222
pulled-down protein CCDC50 (Q8IVM0), run B6
  B6 log2 (H4K5ac8ac/H4K5): 0.6029
pulled-down protein CDK1 (A0A024QZP7), run A6
  A6 log2 (H4K5ac8ac/H4K5): -0.67
pulled-down protein CDK1 (A0A024QZP7), run B6
  B6 log2 (H4K5ac8ac/H4K5): 1.075
pulled-down protein CDK5 (Q00535), run A6
  A6 log2 (H4K5ac8ac/H4K5): 0.3478
pulled-down protein CDK5 (Q00535), run B6
  B6 log2 (H4K5ac8ac/H4K5): 0.6099
pulled-down protein CGGBP1 (C9JUJ0), run A6
  A6 log2 (H4K5ac8ac/H4K5): 0.567
pulled-down protein CGGBP1 (C9JUJ0), run B6
  B6 log2 (H4K5ac8ac/H4K5): 1.126
pulled-down protein CISD2 (Q8N5K1), run A6
  A6 log2 (H4K5ac8ac/H4K5): 0.8566
pulled-down protein CISD2 (Q8N5K1), run B6
  B6 log2 (H4K5ac8ac/H4K5): 0.8209
pulled-down protein CNBP (P62633), run A6
  A6 log2 (H4K5ac8ac/H4K5): 1.001
pulled-down protein CNBP (P62633), run B6
  B6 log2 (H4K5ac8ac/H4K5): 0.8789
pulled-down protein CRKL (P46109), run A6
  A6 log2 (H4K5ac8ac/H4K5): 0.6055
pulled-down protein CRKL (P46109), run B6
  B6 log2 (H4K5ac8ac/H4K5): 0.719
pulled-down protein CTH (P32929), run A6
  A6 log2 (H4K5ac8ac/H4K5): 0.5705
pulled-down protein CTH (P32929), run B6
  B6 log2 (H4K5ac8ac/H4K5): 1.0487
pulled-down protein CYFIP1 (Q7L576), run A6
  A6 log2 (H4K5ac8ac/H4K5): 0.517
pulled-down protein CYFIP1 (Q7L576), run B6
  B6 log2 (H4K5ac8ac/H4K5): 0.6679
pulled-down protein DDX19A (I3L0H8), run A6
  A6 log2 (H4K5ac8ac/H4K5): 0.6876
pulled-down protein DDX19A (I3L0H8), run B6
  B6 log2 (H4K5ac8ac/H4K5): 0.6131
pulled-down protein DNAJC2 (Q99543), run A6
  A6 log2 (H4K5ac8ac/H4K5): 0.5011
pulled-down protein DNAJC2 (Q99543), run B6
  B6 log2 (H4K5ac8ac/H4K5): 0.7739
pulled-down protein DNAJC7 (Q99615), run A6
  A6 log2 (H4K5ac8ac/H4K5): 0.7558
pulled-down protein DNAJC7 (Q99615), run B6
  B6 log2 (H4K5ac8ac/H4K5): 0.7392
pulled-down protein ERCC6L (B5MDQ0), run A6
  A6 log2 (H4K5ac8ac/H4K5): 0.455
pulled-down protein ERCC6L (B5MDQ0), run B6
  B6 log2 (H4K5ac8ac/H4K5): 0.6602
pulled-down protein EZR (E7EQR4), run A6
  A6 log2 (H4K5ac8ac/H4K5): 0.5244
